Record: PubChem BioAssay AID1259254 (NCATS, 2017)
Screen: 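Finding genes that stop cells copying their DNA twice in one cycle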 (primary screen). Cells: human HCT116 colorectal cancer cells. Reagent: single siRNA against human genes. Time to read-out: 3 days. Measured: 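Imaged Hoechst DNA stain sorts each cell into a cycle phase by DNA amount; per plate, G2 fraction set to 0% for non-targeting and 100% for GMNN siRNA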. Reading the numbers: G2 robust z-score and G2 cells, % of GMNN control: higher = more G2 cells, more excess DNA replication. Hit rule: 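An siRNA counts as active if its G2 robust z-score lies at least 5 MADs above the screen median; here such calls match roughly 38% of GMNN control or more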.
The deposit covers about 59,000 reagents; below is an unselected part. In the full data, about 1,550 (2.6%) got an active call. 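G2 share is only a proxy for re-replication; each gene was hit by three separate siRNAs, and active genes were retested.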 Not all columns of the deposit are shown. The record does not give: the amount of reagent.

Gene | PubChem SID | G2 robust z-score | G2 cells, % of GMNN control | Call
LHX3 (LIM homeobox 3) | SID160719559 | 1.01 | 10.1 | inactive
LHX3 (LIM homeobox 3) | SID160719560 | 0.196 | 4.35 | inactive
LHX3 (LIM homeobox 3) | SID160719561 | -0.551 | -0.91 | inactive
SARS2 (seryl-tRNA synthetase 2, mitochondrial) | SID160742545 | -0.138 | 2 | inactive
SARS2 (seryl-tRNA synthetase 2, mitochondrial) | SID160742546 | -0.0837 | 2.38 | inactive
SARS2 (seryl-tRNA synthetase 2, mitochondrial) | SID160742547 | -0.269 | 1.07 | inactive
GPR160 (G protein-coupled receptor 160) | SID160738225 | 7.43 | 55.2 | active
GPR160 (G protein-coupled receptor 160) | SID160738226 | -0.958 | -3.77 | inactive
GPR160 (G protein-coupled receptor 160) | SID160738227 | 0.0237 | 3.13 | inactive
LMF2 (lipase maturation factor 2) | SID160753930 | -0.946 | -3.69 | inactive
LMF2 (lipase maturation factor 2) | SID160753932 | 0.256 | 4.77 | inactive
LMF2 (lipase maturation factor 2) | SID160753933 | 0.733 | 8.13 | inactive
ACSS3 (acyl-CoA synthetase short chain family member 3) | SID160748994 | -0.443 | -0.146 | inactive
ACSS3 (acyl-CoA synthetase short chain family member 3) | SID160748995 | -0.371 | 0.36 | inactive
ACSS3 (acyl-CoA synthetase short chain family member 3) | SID160748996 | -0.493 | -0.502 | inactive
PRDM10 (PR/SET domain 10) | SID160745434 | 0.249 | 4.72 | inactive
PRDM10 (PR/SET domain 10) | SID160745435 | -0.134 | 2.02 | inactive
PRDM10 (PR/SET domain 10) | SID160745436 | -0.349 | 0.511 | inactive
BTF3 (basic transcription factor 3) | SID160729209 | 1.62 | 14.4 | inactive
BTF3 (basic transcription factor 3) | SID160729219 | 2.3 | 19.2 | inactive
BTF3 (basic transcription factor 3) | SID160729230 | 2.62 | 21.4 | inactive
RPS27L (ribosomal protein S27 like) | SID160733484 | -0.336 | 0.604 | inactive
RPS27L (ribosomal protein S27 like) | SID160739955 | 1.23 | 11.6 | inactive
RPS27L (ribosomal protein S27 like) | SID160739956 | 1.12 | 10.9 | inactive
STRC (stereocilin) | SID160759852 | 3.48 | 27.4 | inactive
STRC (stereocilin) | SID160759853 | -0.617 | -1.37 | inactive
STRC (stereocilin) | SID160759854 | 1.37 | 12.6 | inactive
MARCO (macrophage receptor with collagenous structure) | SID160720599 | -0.636 | -1.51 | inactive
MARCO (macrophage receptor with collagenous structure) | SID160720601 | -0.958 | -3.77 | inactive
MARCO (macrophage receptor with collagenous structure) | SID160720602 | 0.182 | 4.25 | inactive
DIS3L (DIS3 like exosome 3'-5' exoribonuclease) | SID160755265 | 0.302 | 5.1 | inactive
DIS3L (DIS3 like exosome 3'-5' exoribonuclease) | SID160755266 | 0.191 | 4.31 | inactive
DIS3L (DIS3 like exosome 3'-5' exoribonuclease) | SID160755267 | -0.348 | 0.52 | inactive
RIBC2 (RIB43A domain with coiled-coils 2) | SID160732857 | 1.97 | 16.9 | inactive
RIBC2 (RIB43A domain with coiled-coils 2) | SID160737704 | 0.88 | 9.16 | inactive
RIBC2 (RIB43A domain with coiled-coils 2) | SID160737706 | -0.353 | 0.487 | inactive
BMP6 (bone morphogenetic protein 6) | SID160728313 | 0.0602 | 3.39 | inactive
BMP6 (bone morphogenetic protein 6) | SID160728324 | 0.621 | 7.34 | inactive
BMP6 (bone morphogenetic protein 6) | SID160728335 | -0.768 | -2.44 | inactive
ACY1 (aminoacylase 1) | SID160732206 | -0.755 | -2.34 | inactive
ACY1 (aminoacylase 1) | SID160778434 | -0.787 | -2.57 | inactive
ACY1 (aminoacylase 1) | SID160778445 | -0.25 | 1.21 | inactive
H4C14 (H4 clustered histone 14) | SID160724171 | 3.83 | 29.9 | inactive
H4C14 (H4 clustered histone 14) | SID160724172 | -1.18 | -5.32 | inactive
H4C14 (H4 clustered histone 14) | SID160735054 | -0.638 | -1.52 | inactive
SENP3 (SUMO specific peptidase 3) | SID160737740 | 1.12 | 10.8 | inactive
SENP3 (SUMO specific peptidase 3) | SID160737741 | 4.58 | 35.2 | inactive
SENP3 (SUMO specific peptidase 3) | SID160737743 | -0.361 | 0.425 | inactive
FTCD (formimidoyltransferase cyclodeaminase) | SID160729316 | -0.2 | 1.56 | inactive
FTCD (formimidoyltransferase cyclodeaminase) | SID160729317 | -0.599 | -1.25 | inactive
FTCD (formimidoyltransferase cyclodeaminase) | SID160729319 | 3.78 | 29.6 | inactive
MAEA (macrophage erythroblast attacher, E3 ubiquitin ligase) | SID160728108 | 0.684 | 7.78 | inactive
MAEA (macrophage erythroblast attacher, E3 ubiquitin ligase) | SID160728109 | -1.17 | -5.27 | inactive
MAEA (macrophage erythroblast attacher, E3 ubiquitin ligase) | SID160728111 | 0.629 | 7.4 | inactive
APOBEC3D (apolipoprotein B mRNA editing enzyme catalytic subunit 3D) | SID160724825 | 0.132 | 3.9 | inactive
APOBEC3D (apolipoprotein B mRNA editing enzyme catalytic subunit 3D) | SID160757789 | 0.0434 | 3.27 | inactive
APOBEC3D (apolipoprotein B mRNA editing enzyme catalytic subunit 3D) | SID160757790 | -0.969 | -3.85 | inactive
NLRP6 (NLR family pyrin domain containing 6) | SID160760508 | -1 | -4.07 | inactive
NLRP6 (NLR family pyrin domain containing 6) | SID160760509 | -0.852 | -3.03 | inactive
NLRP6 (NLR family pyrin domain containing 6) | SID160760510 | -0.428 | -0.0447 | inactive
HAO2 (hydroxyacid oxidase 2) | SID160740258 | 2.12 | 17.9 | inactive
HAO2 (hydroxyacid oxidase 2) | SID160740259 | 0.904 | 9.33 | inactive
HAO2 (hydroxyacid oxidase 2) | SID160740260 | 2.66 | 21.7 | inactive
SPANXN1 (SPANX family member N1) | SID160733466 | -0.0437 | 2.66 | inactive
SPANXN1 (SPANX family member N1) | SID160768264 | -0.0423 | 2.67 | inactive
SPANXN1 (SPANX family member N1) | SID160768265 | 3.53 | 27.8 | inactive
IL10 (interleukin 10) | SID160775751 | 2.48 | 20.4 | inactive
IL10 (interleukin 10) | SID160775752 | 0.485 | 6.38 | inactive
IL10 (interleukin 10) | SID160775753 | -0.853 | -3.03 | inactive
CIMAP1B (ciliary microtubule associated protein 1B) | SID160725409 | -0.957 | -3.76 | inactive
CIMAP1B (ciliary microtubule associated protein 1B) | SID160733402 | -0.433 | -0.0807 | inactive
CIMAP1B (ciliary microtubule associated protein 1B) | SID160767875 | 1.8 | 15.7 | inactive
NR6A1 (nuclear receptor subfamily 6 group A member 1) | SID160770082 | -0.736 | -2.21 | inactive
NR6A1 (nuclear receptor subfamily 6 group A member 1) | SID160770093 | -0.0126 | 2.88 | inactive
NR6A1 (nuclear receptor subfamily 6 group A member 1) | SID160770103 | 1.27 | 11.9 | inactive
ARHGAP5-AS1 (ARHGAP5 antisense RNA 1 (head to head)) | SID160752768 | -0.157 | 1.86 | inactive
ARHGAP5-AS1 (ARHGAP5 antisense RNA 1 (head to head)) | SID160752769 | -0.581 | -1.12 | inactive
ARHGAP5-AS1 (ARHGAP5 antisense RNA 1 (head to head)) | SID160752770 | -0.581 | -1.12 | inactive
SPOPLP2 (SPOPL pseudogene 2) | SID160733768 | -0.343 | 0.554 | inactive
SPOPLP2 (SPOPL pseudogene 2) | SID160768596 | 0.821 | 8.74 | inactive
SPOPLP2 (SPOPL pseudogene 2) | SID160768597 | -0.757 | -2.36 | inactive
KRTAP19-8 (keratin associated protein 19-8) | SID160726634 | -0.225 | 1.38 | inactive
KRTAP19-8 (keratin associated protein 19-8) | SID160726635 | -0.666 | -1.72 | inactive
KRTAP19-8 (keratin associated protein 19-8) | SID160771681 | 0.4 | 5.78 | inactive
TSR1 (TSR1 ribosome maturation factor) | SID160744176 | 2.2 | 18.4 | inactive
TSR1 (TSR1 ribosome maturation factor) | SID160744177 | -0.764 | -2.41 | inactive
TSR1 (TSR1 ribosome maturation factor) | SID160744178 | 2.93 | 23.6 | inactive

Individual results from the entries so far:
Under “G2 cells, % of GMNN control”, BTF3 (basic transcription factor 3) [SID160729219] has 19.2
Entry for MARCO (macrophage receptor with collagenous structure) [SID160720599] under “Call”: inactive
For “G2 robust z-score”, GPR160 (G protein-coupled receptor 160) [SID160738226] shows -0.958
Result for TSR1 (TSR1 ribosome maturation factor) [SID160744177] under “Call”: inactive
FTCD (formimidoyltransferase cyclodeaminase) [SID160729317], G2 cells, % of GMNN control → -1.25
BTF3 (basic transcription factor 3) [SID160729230], G2 robust z-score: 2.62
